In paper PMC4887895:
Results are given in words; binding and its absence hold for the method and conditions named. In cells and extracts the contact can be indirect. These calls come from enrichment with a bait or labelling near it, and not all partners need be listed. A no says only that the protein was not detected with the bait.

T1: FEZ1 (rat (endogenous in rat brain)) (UniProt P97577)
T1 sequence: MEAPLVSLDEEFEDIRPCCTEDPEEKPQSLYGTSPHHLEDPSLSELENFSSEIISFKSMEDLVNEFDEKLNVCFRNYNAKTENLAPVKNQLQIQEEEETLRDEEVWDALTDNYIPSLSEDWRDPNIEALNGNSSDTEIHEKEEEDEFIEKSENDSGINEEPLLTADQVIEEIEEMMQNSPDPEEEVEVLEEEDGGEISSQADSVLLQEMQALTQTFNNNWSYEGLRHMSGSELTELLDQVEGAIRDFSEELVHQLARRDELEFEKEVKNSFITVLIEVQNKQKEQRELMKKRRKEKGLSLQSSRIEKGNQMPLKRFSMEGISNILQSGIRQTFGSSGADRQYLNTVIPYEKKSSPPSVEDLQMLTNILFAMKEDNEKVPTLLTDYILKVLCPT

B1: JIP1 (protein, UniProt Q9R237 1-708)
chain: MAERESGLSGGAASPPAASPFLGLHIASPPNFRLTHDISLEEFEDEDLSEITDECGISLQCKDTLSLRPPRAGLLSAGSSGSAGSRLQAEMLQMDLIDAASDTPGAEDDEEDDDELAAQRPGVGPSKAESGQEPASRSQGQGQGPGTGSGDTYRPKRPTTLNLFPQVPRSQDTLNNNSLGKKHSWQDRVSRSSSPLKTGEQTPPHEHICLSDELPPQGSPVPTQDRGTSTDSPCRRTAATQMAPPSGPPATAPGGRGHSHRDRIHYQADVRLEATEEIYLTPVQRPPDPAEPTSTFLPPTESRMSVSSDPDPAAYSVTAGRPHPSISEEDEGFDCLSSPEQAEPPGGGWRGSLGEPPPPPRASLSSDTSALSYDSVKYTLVVDEHAQLELVSLRPCFGDYSDESDSATVYDNCASASSPYESAIGEEYEEAPQPRPPTCLSEDSTPDEPDVHFSKKFLNVFMSGRSRSSSAESFGLFSCVINGEEHEQTHRAIFRFVPRHEDELELEVDDPLLVELQAEDYWYEAYNMRTGARGVFPAYYAIEVTKEPEHMAALAKNSDWIDQFRVKFLGSVQVPYHKGNDVLCAAMQKIATTRRLTVHFNPPSSCVLEISVRGVKIGVKADEAQEAKGNKCSHFFQLKNISFCGYHPKNNKYFGFITKHPADHRFACHVFVSEDSTKALAESVGRAFQQFYKQFVEYTCPTEDIYLE
B2: JIP2 (protein, UniProt G3V9M2 1-835)
chain: MADRAEMFSLSTFHSLSPPGCRPPQDISLEEFDDEDLSEITDDCGLGLSYDSDHCEKDSLSLGRSEQPHPICSFQDDFQEFEMIDDNEEEEDEEEEEEEEEEEDGDGDGRAGGGSGSQELSGESLIPSPSIEESHKLRPTTLHLTTLGAQDSLNNNSNGGFTSAPPSSWQETVLRSPVQEPLKELPAPLLPAEEEHHEVQSLARPGCDCEGNQPPEPPASGGASPSSDPGIEADLRSHSSGGHEGRRSSQELSSPGSDSEEAGGARLGRMISSISETELELSSDSGSSSGRSSHLTNSIEEASSPASEPEPEPEPEPLHEPPRRPAFLPVGQDDTNSEYESGSESEPDLSEDADSPWLLSNLVSRMISEGSSPIRCPGQCLSPPAPRPPEEAASQANPVPQDCPDPEAVAGPHVELVDMDTLCGPPPPAPAAPRLGPAQSGPCLFLSNPTRDTITPLWAPPGRTARPGRSCSAACSEEEEEDEEEDEEDEEDAEDSVIPPGSRTTGSTAPLDASLVYDAVKYTLVVDEHTQLELVSLRRCAGLDNDSEEDSSCEASEEEAGATLLGSDQVPEDASPDSPDLTFSKKFLNVFVNSTSRSSSTESFGLFSCVVNGEEREQTHRAVFRFIPRHPDELELDVDDPVLVEAEEDDFWFRGFNMRTGERGVFPAFYAHAVPGPAKDLLGSKRSPCWVDRFDVQFLGSVEVPCHQGNGILCAAMQKIATARKLTVHLRPPASCDLEISLRGVKLSLSGGGPEFQRCSHFFQMKNISFCGCHPRNSCYFGFITKHPLLSRFACHVFVSQESMRPVARSVGRAFLEYYQEHLAFACPTEDIYLE
B3: syntaxin-13 (protein, UniProt G3V7P1 1-274)
chain: MSYGPLDMYRNPGPSGPQPRDFNSIIQTCSGNIQRISQATAQIKNLMSQLGTKQDSSKLQENLQQFQHSTNQLAKETNELLKELGSLPLPLSASEQRQQKLQKERLMNDFSSALNNFQVVQRKVSEKEKESIARARAGSRLSAEDRQREEQLVSFDSHEEWNQMQSQEEEAAITEQDLELIKERETAIQQLEADILDVNQIFKDLAMMIHDQGDLIDSIEANVESSEVHVERASDQLQRAAYYQKKSRKKMCILVLVLSVIVTVLVVVIWVASK

These molecules were tested against T1, FEZ1 (rat (endogenous in rat brain)) (assay: affinity purification with mass spectrometry; FEZ1- or Kinesin-1-containing vesicles immunoisolated from rat brain cortex supernatant S2 in PBS/BSA with anti-FEZ1 or anti-Kinesin-1 antibody overnight at 4 °C and Dynabeads Protein A, washed with PBS plus 0.3% BSA; label-free quantitative mass spectrometry against a control IP, 4 biological replicates).

binding, no binding:
Rab11 (rat (endogenous in rat brain)), syntabulin (rat (endogenous in rat brain)), Rab5 (rat (endogenous in rat brain)), Rab4 (rat (endogenous in rat brain)), calsyntenin (rat (endogenous in rat brain))

Target: T1, FEZ1 (rat (endogenous in rat brain))
Test: as above
Remark: another data set of the same source

binding, no binding:
B1, B2, B3

The molecules below were run against Kinesin-1 (rat (endogenous in rat brain)) in the same assay as above.

binding, no binding:
B1, B2, B3
